Assay results reported in US20150209319A1, “COMPOSITIONS COMPRISING AN ANTIBODY AND CAMOSTAT MESYLATE (CM)” (Glaxo Group Limited, priority 2012, published 2015).
Results are given in words; binding and its absence hold for the method and conditions named. Some entries that bind do so weakly or less than the wild type.

Chains of the proteins cited; added tags and fusions are not shown. Lines headed by an entry give the natural chain unless they say otherwise; changes in a name come on top.
UniProt Q9NPF7: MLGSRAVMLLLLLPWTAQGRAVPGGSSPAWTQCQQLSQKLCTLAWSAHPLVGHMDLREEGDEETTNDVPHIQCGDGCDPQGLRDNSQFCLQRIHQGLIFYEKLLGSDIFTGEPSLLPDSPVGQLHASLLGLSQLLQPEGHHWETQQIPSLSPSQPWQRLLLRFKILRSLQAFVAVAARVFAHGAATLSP
UniProt P05231: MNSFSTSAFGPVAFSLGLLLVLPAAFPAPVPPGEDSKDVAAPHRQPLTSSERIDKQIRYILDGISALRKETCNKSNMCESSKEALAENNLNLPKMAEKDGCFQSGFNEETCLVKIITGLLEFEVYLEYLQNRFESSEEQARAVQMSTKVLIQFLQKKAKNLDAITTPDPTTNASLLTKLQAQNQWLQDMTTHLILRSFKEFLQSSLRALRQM

Tests used:
[1] = target: IL-23 (Homo sapiens (Human)) (UniProt Q9NPF7); experiment: ELISA, plate coated with IL-23, mAb from SIF incubation with or without camostat mesylate, anti-human Fc detection
[2] = target: IL-23 (Homo sapiens (Human)) (UniProt Q9NPF7); experiment: ELISA, plate coated with IL-23, detection with peroxidase-conjugated anti-human Fc antibody
[3] = target: IL-23 (Homo sapiens (Human)) (UniProt Q9NPF7); experiment: ELISA on plate-coated IL-23, detection with peroxidase-conjugated anti-human Fc antibody, OPD, A490; mAb samples taken after incubation in SIF at 37 C with or without camostat mesylate (10 mg/ml), quantified against a mAb standard curve [b]
[4] = target: IL-6 (Homo sapiens (Human)) (UniProt P05231); experiment: ELISA on plate-coated IL-6, detection with peroxidase-conjugated anti-human Fc antibody, OPD, A490; mAb samples taken after incubation in SIF at 37 C with or without camostat mesylate (10 mg/ml), quantified against a mAb standard curve [a]
[5] = target: IL-6 (Homo sapiens (Human)) (UniProt P05231); experiment: ELISA, plate coated with IL-6, detection with peroxidase-conjugated anti-human Fc antibody
[6] = target: IL-6 (Homo sapiens (Human)) (UniProt P05231); experiment: ELISA, plate coated with IL-6, mAb from SIF incubation with or without camostat mesylate, anti-human Fc detection

Measured: binding

B1: anti-IL-23 antibody (SEQ ID NOs: 3 and 4) (antibody, human IgG1, kappa, V domains shown)
VH: QVQLVQSGAEVKKPGSSVKVSCKASGYTFTSYGITWVRQAPGQGLEWMGENYPRSGNIYYNEKFKGRVTITADKSTSTAYMELSSLRSEDTAVYYCARAEFISTVVAPYYYALDYWGQGTLVTVSS
VL: DIVMTQSPDSLAVSLGERATINCKASKKVTIFGSTSALHWYQQKPGQPPKLIYNLAKPESGVPDRFSGSGSGTDFTLTISSLQAEDVAVYYCLQNKEVPYTFGGGTKVEIKR
binds: [1] | [2] | [3]

B2: anti-IL-6 antibody (SEQ ID NOs: 1 and 2) (antibody, human IgG1, kappa, V domains shown)
VH: QVQLQESGPGLVKPSETLSLTCTVSGFSLSTSGMGVGWIRQPPGKGLEWIGHIWWDDDKYYNPSLKSRVTISVDTSKNQFSLKLSSVTAADTAVYYCARSYDDYLYYALDYWGQGTLVTVSS
VL: DIQMTQSPSSLSASVGDRVTITCRASQSISDYLHWYQQKPGKAPKLLIKSVSQSISGVPSRFSGSGSGTDFTLTISSLQPEDFATYYCQNGHSFPLTFGQGTKLEIKR
binds: [4] | [5] | [6]
